{"source": "patent US20150344540A1", "about": "“NOVEL GLP-1 RECEPTOR AGONISTS WITH CHOLESTEROL EFFLUX ACTIVITY” (NOVO NORDISK A/S, priority 2012, published 2015)", "note": "At least one structure is not confirmed: it was looked up by name or label, or the drawing left a doubt. Where a SMILES comes first, the peptide text is derived from it. Where no end group is shown, it is not given here. [ ]: non-standard residue; d: D form. Aib = CC(C)(N)C(=O)O"}
{"system": "Mouse monocyte/macrophage cell line, RAW 264.7", "experiment": "Cholesterol efflux assay (3H-cholesterol, macrophage cell line)", "format": "cell-based", "settings": "RAW 264.7, 4 hrs incubation, 0.1% human serum albumin, ABCA1-mediated efflux", "units": {"4 h Cholesterol Efflux Emax": "%"}}
{"compound": "CC[C@H](C)[C@H](NC(=O)[C@H](Cc1ccccc1)NC(=O)[C@H](CCC(=O)O)NC(=O)[C@H](CCCCN)NC(=O)[C@@H](NC(=O)[C@H](C)NC(=O)[C@H](CCC(=O)O)NC(=O)CNC(=O)[C@H](CCC(=O)O)NC(=O)[C@H](CC(C)C)NC(=O)[C@H](Cc1ccc(O)cc1)NC(=O)[C@H](CO)NC(=O)[C@H](CO)NC(=O)[C@@H](NC(=O)[C@H](CC(=O)O)NC(=O)[C@H](CO)NC(=O)[C@@H](NC(=O)[C@H](CC(C)C)NC(=O)[C@@H](NC(=O)CNC(=O)[C@H](CC(=O)O)NC(=O)[C@H](C)NC(=O)[C@@H](N)Cc1c[nH]cn1)[C@@H](C)O)[C@@H](C)O)[C@@H](C)CC)C(C)C)C(=O)N[C@@H](C)C(=O)N[C@@H](Cc1c[nH]c2ccccc12)C(=O)N[C@@H](CC(C)C)C(=O)N[C@H](C(=O)N[C@@H](CCC(=O)O)C(=O)N[C@@H](CCCCN)C(=O)NC(C)(C)C(=O)N[C@@H](CCCCN)C(=O)N[C@@H](CCC(=O)O)C(=O)N[C@@H](Cc1ccccc1)C(=O)N[C@@H](CC(C)C)C(N)=O)C(C)C", "note": "[Compound 14, [Asp9,Leu12,Ile16,Glu23,Val25,Glu34,Lys35,Aib36,Lys37]-GLP-1-(7-37)-peptidyl-Glu-Phe-Leu amide] (H-HADGTLTSDISSYLEGEAVKEFIAWLVEK[Aib]KEFL-NH2; N-terminus assumed)", "4 h Cholesterol Efflux Emax": 96}
{"compound": "CC[C@H](C)[C@H](NC(=O)[C@H](Cc1ccccc1)NC(=O)[C@H](CCC(=O)O)NC(=O)[C@H](CCCCN)NC(=O)[C@H](C)NC(=O)[C@H](C)NC(=O)[C@H](CCC(N)=O)NC(=O)[C@H](CCC(=O)O)NC(=O)[C@H](CCC(=O)O)NC(=O)[C@H](CC(C)C)NC(=O)[C@H](Cc1ccc(O)cc1)NC(=O)[C@H](CCCCN)NC(=O)[C@H](CO)NC(=O)[C@H](Cc1ccc(O)cc1)NC(=O)[C@H](CC(=O)O)NC(=O)[C@H](CO)NC(=O)[C@@H](NC(=O)[C@H](Cc1ccccc1)NC(=O)[C@@H](NC(=O)CNC(=O)[C@H](CCC(N)=O)NC(=O)[C@H](CO)NC(=O)[C@@H](N)Cc1c[nH]cn1)[C@@H](C)O)[C@@H](C)O)C(=O)N[C@@H](C)C(=O)N[C@@H](Cc1c[nH]c2ccccc12)C(=O)N[C@@H](CC(C)C)C(=O)N[C@@H](CC(C)C)C(=O)N[C@@H](CCC(=O)O)C(=O)N[C@@H](CCCCN)C(=O)NC(C)(C)C(=O)N[C@@H](CCCCN)C(=O)N[C@@H](CCC(=O)O)C(=O)N[C@@H](Cc1ccccc1)C(=O)N[C@@H](CC(C)C)C(N)=O", "note": "[Compound 56] (H-HSQGTFTSDYSKYLEEQAAKEFIAWLLEK[Aib]KEFL-NH2; N-terminus assumed)", "4 h Cholesterol Efflux Emax": 101}
{"compound": "HAQGTFTSDYSKYLDSKAAREFVQWLLEKVKEFL-NH2 [Compound 68]", "4 h Cholesterol Efflux Emax": 95}
